Experimental data as given in the supplement of paper PMC10849652.
The list shows a part of the results.

By UniProt entry, the sequences of proteins in these tests, tags left out. Where a name states a change or a piece, a line headed by the entry shows the natural chain unless it says otherwise.
UniProt P0DMM9: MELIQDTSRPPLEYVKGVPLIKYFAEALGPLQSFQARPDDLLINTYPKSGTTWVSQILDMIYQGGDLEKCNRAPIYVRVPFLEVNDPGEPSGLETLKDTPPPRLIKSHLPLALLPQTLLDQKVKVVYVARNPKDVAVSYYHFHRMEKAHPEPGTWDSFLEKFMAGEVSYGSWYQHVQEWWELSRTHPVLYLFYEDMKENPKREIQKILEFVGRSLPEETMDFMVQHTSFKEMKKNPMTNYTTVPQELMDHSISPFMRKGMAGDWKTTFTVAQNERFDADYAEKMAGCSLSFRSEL
UniProt Q92537: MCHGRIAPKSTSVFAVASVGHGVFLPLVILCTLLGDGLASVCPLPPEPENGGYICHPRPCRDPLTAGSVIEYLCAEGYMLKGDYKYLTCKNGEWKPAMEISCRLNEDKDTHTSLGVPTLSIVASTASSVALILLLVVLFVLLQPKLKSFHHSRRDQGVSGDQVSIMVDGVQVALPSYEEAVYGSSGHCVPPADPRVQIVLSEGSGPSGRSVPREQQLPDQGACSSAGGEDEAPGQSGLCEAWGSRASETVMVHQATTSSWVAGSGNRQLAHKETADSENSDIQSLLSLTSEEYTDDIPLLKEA
UniProt O94768: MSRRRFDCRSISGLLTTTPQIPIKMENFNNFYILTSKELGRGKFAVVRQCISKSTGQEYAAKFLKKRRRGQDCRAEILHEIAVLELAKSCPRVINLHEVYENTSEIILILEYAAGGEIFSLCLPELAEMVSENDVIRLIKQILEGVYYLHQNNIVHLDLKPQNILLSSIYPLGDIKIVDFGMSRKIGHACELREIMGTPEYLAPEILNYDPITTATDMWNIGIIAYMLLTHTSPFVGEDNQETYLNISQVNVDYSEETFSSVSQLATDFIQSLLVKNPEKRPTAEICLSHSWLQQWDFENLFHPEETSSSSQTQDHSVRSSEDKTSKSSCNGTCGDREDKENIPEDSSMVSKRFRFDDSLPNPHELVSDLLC
UniProt Q9C0K7: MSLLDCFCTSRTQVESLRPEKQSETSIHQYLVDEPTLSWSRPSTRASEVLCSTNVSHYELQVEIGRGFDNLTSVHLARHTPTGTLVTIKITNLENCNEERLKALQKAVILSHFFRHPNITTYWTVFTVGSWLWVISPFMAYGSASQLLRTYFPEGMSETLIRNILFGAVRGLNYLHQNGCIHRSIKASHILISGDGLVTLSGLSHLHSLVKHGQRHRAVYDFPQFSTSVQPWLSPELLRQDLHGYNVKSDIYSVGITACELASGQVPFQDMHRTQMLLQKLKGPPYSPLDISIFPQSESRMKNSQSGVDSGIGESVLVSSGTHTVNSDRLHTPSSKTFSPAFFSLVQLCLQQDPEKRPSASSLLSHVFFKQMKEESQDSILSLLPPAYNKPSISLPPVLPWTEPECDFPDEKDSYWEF
UniProt Q9UEE5: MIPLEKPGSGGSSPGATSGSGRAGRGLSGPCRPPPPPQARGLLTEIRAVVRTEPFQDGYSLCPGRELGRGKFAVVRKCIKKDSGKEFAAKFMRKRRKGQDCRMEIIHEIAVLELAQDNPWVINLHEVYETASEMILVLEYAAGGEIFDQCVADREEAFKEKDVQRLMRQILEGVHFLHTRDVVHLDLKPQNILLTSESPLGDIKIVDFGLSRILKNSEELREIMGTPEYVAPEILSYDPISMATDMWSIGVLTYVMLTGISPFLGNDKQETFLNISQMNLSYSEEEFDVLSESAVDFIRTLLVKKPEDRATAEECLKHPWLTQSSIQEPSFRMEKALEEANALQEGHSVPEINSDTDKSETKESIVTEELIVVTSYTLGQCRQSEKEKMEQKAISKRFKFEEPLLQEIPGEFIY
UniProt Q9P246, whole entry, looked up: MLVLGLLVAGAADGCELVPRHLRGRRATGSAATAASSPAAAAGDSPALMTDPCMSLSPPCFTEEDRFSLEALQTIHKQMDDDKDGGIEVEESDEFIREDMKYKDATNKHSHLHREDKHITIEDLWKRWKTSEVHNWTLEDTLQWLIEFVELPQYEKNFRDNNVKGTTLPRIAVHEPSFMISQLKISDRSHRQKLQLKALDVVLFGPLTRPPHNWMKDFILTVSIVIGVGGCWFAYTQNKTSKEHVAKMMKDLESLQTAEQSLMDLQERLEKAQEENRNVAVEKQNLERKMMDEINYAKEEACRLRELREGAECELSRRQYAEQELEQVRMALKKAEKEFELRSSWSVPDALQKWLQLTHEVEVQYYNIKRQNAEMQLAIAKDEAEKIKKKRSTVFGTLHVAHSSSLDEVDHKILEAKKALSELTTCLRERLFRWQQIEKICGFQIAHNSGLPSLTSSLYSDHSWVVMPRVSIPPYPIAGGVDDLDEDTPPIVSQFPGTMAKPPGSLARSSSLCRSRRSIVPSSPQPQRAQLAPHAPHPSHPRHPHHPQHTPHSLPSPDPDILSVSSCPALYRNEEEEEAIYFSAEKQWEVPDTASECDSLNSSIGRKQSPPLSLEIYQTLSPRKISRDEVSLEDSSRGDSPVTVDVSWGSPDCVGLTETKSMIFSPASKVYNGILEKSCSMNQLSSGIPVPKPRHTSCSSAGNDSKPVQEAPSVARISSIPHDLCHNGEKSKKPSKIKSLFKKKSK
UniProt Q6UWL2: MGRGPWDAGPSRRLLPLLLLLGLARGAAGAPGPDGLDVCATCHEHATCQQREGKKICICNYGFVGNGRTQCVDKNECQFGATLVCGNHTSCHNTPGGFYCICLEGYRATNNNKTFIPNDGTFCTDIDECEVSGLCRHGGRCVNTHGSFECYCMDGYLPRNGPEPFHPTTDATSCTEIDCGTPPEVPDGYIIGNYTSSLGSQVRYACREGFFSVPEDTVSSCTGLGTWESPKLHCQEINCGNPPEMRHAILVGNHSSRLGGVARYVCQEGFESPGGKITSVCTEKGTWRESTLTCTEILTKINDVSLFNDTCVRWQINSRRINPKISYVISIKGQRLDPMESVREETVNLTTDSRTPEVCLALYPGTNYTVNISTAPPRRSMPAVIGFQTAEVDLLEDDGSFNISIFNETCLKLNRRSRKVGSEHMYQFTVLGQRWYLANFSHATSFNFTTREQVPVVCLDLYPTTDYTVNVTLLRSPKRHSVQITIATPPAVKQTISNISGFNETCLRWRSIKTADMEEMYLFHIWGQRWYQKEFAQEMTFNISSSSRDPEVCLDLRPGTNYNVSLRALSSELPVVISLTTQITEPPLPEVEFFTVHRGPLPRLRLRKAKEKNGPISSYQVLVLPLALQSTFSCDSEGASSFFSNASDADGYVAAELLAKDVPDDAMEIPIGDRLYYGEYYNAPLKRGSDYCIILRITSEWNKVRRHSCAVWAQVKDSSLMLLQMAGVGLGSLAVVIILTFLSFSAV
UniProt Q8N300: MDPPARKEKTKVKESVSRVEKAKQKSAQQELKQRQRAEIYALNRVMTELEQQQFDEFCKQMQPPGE
UniProt Q5VWG9, whole entry, looked up: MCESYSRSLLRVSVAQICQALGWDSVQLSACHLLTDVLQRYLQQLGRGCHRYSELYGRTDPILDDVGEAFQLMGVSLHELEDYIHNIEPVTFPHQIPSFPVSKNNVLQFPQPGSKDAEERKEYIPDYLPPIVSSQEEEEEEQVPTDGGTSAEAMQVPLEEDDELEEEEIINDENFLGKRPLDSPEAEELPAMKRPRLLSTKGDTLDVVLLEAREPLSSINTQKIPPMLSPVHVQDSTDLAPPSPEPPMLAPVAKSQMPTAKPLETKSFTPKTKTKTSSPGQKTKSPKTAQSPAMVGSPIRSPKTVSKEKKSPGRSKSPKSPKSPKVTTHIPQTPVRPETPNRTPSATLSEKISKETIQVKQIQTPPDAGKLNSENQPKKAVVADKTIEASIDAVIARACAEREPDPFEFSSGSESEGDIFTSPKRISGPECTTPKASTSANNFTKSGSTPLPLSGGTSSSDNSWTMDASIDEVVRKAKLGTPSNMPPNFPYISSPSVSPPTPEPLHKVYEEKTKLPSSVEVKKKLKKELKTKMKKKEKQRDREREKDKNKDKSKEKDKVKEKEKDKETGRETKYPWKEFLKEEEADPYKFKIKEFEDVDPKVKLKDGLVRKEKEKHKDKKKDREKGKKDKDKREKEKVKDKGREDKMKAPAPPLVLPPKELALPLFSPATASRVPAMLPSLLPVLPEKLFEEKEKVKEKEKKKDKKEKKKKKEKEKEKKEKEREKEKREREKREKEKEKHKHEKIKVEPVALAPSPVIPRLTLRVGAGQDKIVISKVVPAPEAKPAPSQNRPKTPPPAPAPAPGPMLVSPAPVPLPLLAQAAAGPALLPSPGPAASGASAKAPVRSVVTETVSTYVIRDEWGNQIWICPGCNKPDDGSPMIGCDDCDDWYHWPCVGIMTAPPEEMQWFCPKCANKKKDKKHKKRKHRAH
UniProt Q8NFX7: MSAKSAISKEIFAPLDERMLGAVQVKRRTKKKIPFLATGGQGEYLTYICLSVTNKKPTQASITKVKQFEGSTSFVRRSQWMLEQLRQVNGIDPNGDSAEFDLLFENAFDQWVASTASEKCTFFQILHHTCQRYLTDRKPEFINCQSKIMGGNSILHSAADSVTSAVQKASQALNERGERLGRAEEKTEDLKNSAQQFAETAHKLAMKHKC
UniProt Q9Y6Q2: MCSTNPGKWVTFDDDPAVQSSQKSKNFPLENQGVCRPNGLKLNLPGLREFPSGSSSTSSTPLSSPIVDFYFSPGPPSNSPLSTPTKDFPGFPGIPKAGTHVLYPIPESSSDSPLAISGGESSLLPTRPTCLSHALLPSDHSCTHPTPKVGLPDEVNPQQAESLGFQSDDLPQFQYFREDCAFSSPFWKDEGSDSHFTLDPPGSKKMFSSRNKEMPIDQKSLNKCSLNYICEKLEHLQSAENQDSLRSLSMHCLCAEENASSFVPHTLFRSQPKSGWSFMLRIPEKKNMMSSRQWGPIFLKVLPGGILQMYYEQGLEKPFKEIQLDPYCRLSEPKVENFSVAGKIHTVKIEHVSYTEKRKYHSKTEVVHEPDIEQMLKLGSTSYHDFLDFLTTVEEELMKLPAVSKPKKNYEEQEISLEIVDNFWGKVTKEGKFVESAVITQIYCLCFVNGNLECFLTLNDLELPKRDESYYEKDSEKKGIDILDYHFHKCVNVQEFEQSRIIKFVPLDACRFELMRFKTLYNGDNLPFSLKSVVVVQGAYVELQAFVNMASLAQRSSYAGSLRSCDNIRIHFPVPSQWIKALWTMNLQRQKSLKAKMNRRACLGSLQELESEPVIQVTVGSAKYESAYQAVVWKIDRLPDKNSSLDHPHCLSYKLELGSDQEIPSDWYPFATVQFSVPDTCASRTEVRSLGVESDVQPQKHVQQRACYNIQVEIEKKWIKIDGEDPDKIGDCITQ
UniProt O75478: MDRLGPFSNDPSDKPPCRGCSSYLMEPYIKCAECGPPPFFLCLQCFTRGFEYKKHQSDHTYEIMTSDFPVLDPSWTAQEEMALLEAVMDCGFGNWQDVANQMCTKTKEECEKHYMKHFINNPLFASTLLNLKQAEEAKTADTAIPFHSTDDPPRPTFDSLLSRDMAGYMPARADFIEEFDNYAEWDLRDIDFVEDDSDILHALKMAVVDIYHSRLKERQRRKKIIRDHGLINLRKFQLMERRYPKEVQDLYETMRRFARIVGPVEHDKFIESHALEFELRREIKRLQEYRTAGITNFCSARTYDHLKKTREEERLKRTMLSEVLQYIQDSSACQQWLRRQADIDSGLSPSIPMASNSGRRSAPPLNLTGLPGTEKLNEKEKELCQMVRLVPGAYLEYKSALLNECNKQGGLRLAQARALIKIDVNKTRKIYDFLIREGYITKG
UniProt Q86TJ2: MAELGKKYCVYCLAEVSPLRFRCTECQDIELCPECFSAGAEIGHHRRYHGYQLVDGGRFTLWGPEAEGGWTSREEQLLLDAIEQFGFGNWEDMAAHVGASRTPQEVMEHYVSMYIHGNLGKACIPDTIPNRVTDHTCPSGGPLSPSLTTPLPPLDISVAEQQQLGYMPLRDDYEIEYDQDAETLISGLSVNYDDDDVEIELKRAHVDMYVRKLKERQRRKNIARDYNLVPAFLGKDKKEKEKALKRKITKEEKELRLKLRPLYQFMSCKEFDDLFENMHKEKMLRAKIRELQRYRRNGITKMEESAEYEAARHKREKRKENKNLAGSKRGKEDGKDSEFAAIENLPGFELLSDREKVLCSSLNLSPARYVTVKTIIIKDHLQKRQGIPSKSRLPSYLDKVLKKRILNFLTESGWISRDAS
UniProt O43759: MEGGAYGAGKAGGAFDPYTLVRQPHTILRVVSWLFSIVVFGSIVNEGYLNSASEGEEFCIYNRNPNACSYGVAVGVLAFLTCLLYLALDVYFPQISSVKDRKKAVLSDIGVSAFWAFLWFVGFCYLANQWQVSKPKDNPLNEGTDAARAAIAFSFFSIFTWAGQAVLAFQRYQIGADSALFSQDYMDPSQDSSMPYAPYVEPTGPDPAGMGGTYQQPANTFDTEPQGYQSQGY
UniProt P49842: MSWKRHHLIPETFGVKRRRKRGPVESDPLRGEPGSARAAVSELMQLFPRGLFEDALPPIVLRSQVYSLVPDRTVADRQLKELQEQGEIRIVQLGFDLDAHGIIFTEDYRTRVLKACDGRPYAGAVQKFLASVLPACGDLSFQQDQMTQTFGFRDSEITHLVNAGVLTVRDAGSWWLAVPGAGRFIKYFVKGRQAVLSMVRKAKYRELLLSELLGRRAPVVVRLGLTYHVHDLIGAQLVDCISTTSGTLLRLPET

Legend:
Test in all cases: log2 fold change, soluble protein after heating vs DMSO (PISA); higher = thermal stabilisation; K562 lysate, 10 uM; active = over 0.2 and 3.5 SD of the protein, either way, in both replicates (recomputed)
barasertib = compound: CCN(CCCOc1ccc2c(Nc3cc(CC(=O)Nc4cccc(F)c4)[nH]n3)ncnc2c1)CCOP(=O)(O)O [barasertib]
Summary of the method: (§1)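 To prepare the extract, K562 pellets were dounce-homogenised in PBS pH 7.4 with 1 mM MgCl2, giving crude material at 1 mg/mL protein. This was treated with 10 μM compound for 30 min, then heated in aliquots for 3 min over 48°C-58°C before pooling and addition of NP-40 to 0.5% at 4°C. Centrifugation at 21,000xg for 90 min left soluble protein in the supernatant, which TMTpro 16plex LC-MS/MS quantified with equalised channel sums. Results are log-two fold changes in thermal stability compared with solvent controls, from duplicates.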

[1] = compound: CC[C@@H]1C(=O)N(C)c2cnc(Nc3ccc(C(=O)NC4CCN(C)CC4)cc3OC)nc2N1C1CCCC1
Summary of the method: as §1

[2] = compound: CCn1c(C(=O)N(C2CC2)C2CC2)cc2c3c(ncn3C)c(Nc3cc(C)n(C)n3)nc21
Summary of the method: as §1

[3] = compound: CCn1cc(-c2ccnc3[nH]c(-c4cccc(CN(C)C)c4)cc23)c(-c2ccc(NC(=O)N(C)C)cc2)n1
Summary of the method: as §1

[4] = compound: CN1CCC(CNc2ccc3ncc(-c4cccc(OC(F)(F)F)c4)n3n2)CC1
Summary of the method: as §1

saracatinib = compound: CN1CCN(CCOc2cc(OC3CCOCC3)c3c(Nc4c(Cl)ccc5c4OCO5)ncnc3c2)CC1 [saracatinib]
Summary of the method: as §1

sotrastaurin = compound: CN1CCN(c2nc(C3=C(c4c[nH]c5ccccc45)C(=O)NC3=O)c3ccccc3n2)CC1 [sotrastaurin]
Summary of the method: as §1

alvocidib = compound: CN1CC[C@H](c2c(O)cc(O)c3c(=O)cc(-c4ccccc4Cl)oc23)[C@H](O)C1 [alvocidib]
Summary of the method: as §1

Tubastatin A = compound: CN1CCc2c(c3ccccc3n2Cc2ccc(C(=O)NO)cc2)C1 [Tubastatin A]
Summary of the method: as §1

[5] = compound: CNC(=O)C1=CC=CC=C1NC2=NC(=NC=C2Cl)NC3=C(C=C(C=C3)N4CCOCC4)OC
Summary of the method: as §1

[6] = compound: CNc1nc(-c2ccc3c(N)n[nH]c3c2)cc(N2C[C@@H](C(=O)NC3CCCCC3)CC[C@H]2C)n1
Summary of the method: as §1

encorafenib = compound: COC(=O)N[C@@H](C)CNc1nccc(-c2cn(C(C)C)nc2-c2cc(Cl)cc(NS(C)(=O)=O)c2F)n1 [encorafenib]
Summary of the method: as §1

[7] = compound: COC(=O)[C@H](CCSC)NC(=O)C1=C(C=C(C=C1)NC[C@H](CS)N)C2=CC=CC=C2
Summary of the method: as §1

alisertib = compound: COc1cc(Nc2ncc3c(n2)-c2ccc(Cl)cc2C(c2c(F)cccc2OC)=NC3)ccc1C(=O)O [alisertib]
Summary of the method: as §1

gefitinib = compound: COc1cc2ncnc(Nc3ccc(F)c(Cl)c3)c2cc1OCCCN1CCOCC1 [gefitinib]
Summary of the method: as §1

[8] = compound: CCCS(=O)(=O)Nc1ccc(F)c(C(=O)c2c[nH]c3ncc(Cl)cc23)c1F
Summary of the method: as §1

volasertib = compound: CC[C@@H]1C(=O)N(C)c2cnc(Nc3ccc(C(=O)N[C@H]4CC[C@H](N5CCN(CC6CC6)CC5)CC4)cc3OC)nc2N1C(C)C [volasertib]
Summary of the method: as §1

[9] = compound: COc1cc2nc(-c3cc(F)ccc3O)nc(N[C@@H]3CNC[C@H]3C(C)(C)O)c2cc1OC
Summary of the method: as §1

vemurafenib = compound: CCCS(=O)(=O)Nc1ccc(F)c(C(=O)c2c[nH]c3ncc(-c4ccc(Cl)cc4)cc23)c1F [vemurafenib]
Summary of the method: as §1

defactinib = compound: CNC(=O)c1ccc(Nc2ncc(C(F)(F)F)c(NCc3nccnc3N(C)S(C)(=O)=O)n2)cc1 [defactinib]
Summary of the method: as §1

Measured: log2 fold change

SULT1A3 isoform 3 (UniProt P0DMM9)
inactive: barasertib -0.009 | [1] -0.142 | [2] 0.089 | [3] 0.13 | [4] -0.06 | saracatinib 0.029 | sotrastaurin 0.045 | alvocidib 0.086 | Tubastatin A -0.068 | [5] 0.064 | [6] -0.225 | encorafenib 0.019 | [7] -0.005 | alisertib -0.027 | gefitinib 0.027

SUSD6 (UniProt Q92537)
inactive: [3] -0.105 | [4] 0.349 | alvocidib 0

STRN3 (UniProt H0YJT2)
inactive: [1] -0.131 | [3] 0.301 | [4] -0.185 | saracatinib -0.014 | alvocidib 0.024 | [6] 0 | encorafenib -0.014 | [7] 0.07

SZT2 (UniProt Q5T011)
inactive: [8] -0.032 | barasertib 0.313 | [1] 0.293 | volasertib -0.095 | [2] 0.006 | [3] 0.035 | [4] 0.094 | saracatinib -0.073 | alvocidib -0.169 | Tubastatin A 0.012 | [5] -0.002 | [6] 0.109 | encorafenib -0.011 | [7] -0.105 | alisertib -0.193 | [9] -0.031 | gefitinib 0.094

SUGCT isoform 3 (UniProt Q9HAC7)
inactive: [1] 0 | saracatinib 0.049 | [6] -0.153 | encorafenib 0.083 | [7] -0.112

SYCE2 (UniProt Q6PIF2)
inactive: sotrastaurin 0.101

STK17B (UniProt O94768)
inactive: [2] -0.451 | saracatinib -0.002 | sotrastaurin 0.057 | Tubastatin A -0.466 | [5] 0.082 | [6] 0.642 | alisertib 0.066 | gefitinib 0.094

STRADB (UniProt Q9C0K7)
inactive: [5] 0.419

STK26 isoform 3 (UniProt Q9P289)
inactive: [1] 0.189 | saracatinib -0.046 | sotrastaurin -0.119 | [6] 0.058 | encorafenib 0.034 | [7] 0.001

TACC3 (UniProt C9JWI7)
inactive: vemurafenib 0.026 | defactinib -0.053

TAF13 (UniProt Q15543)
inactive: vemurafenib -0.038 | [2] 0.104 | [3] -0.081 | [4] -0.006 | alvocidib -0.042 | Tubastatin A -0.01 | [5] 0.035 | defactinib -0.041 | alisertib 0.144 | gefitinib 0.086

STK17A (UniProt Q9UEE5)
inactive: [3] 0.164 | [4] -0.109 | alvocidib 0.182 | alisertib -0.291 | gefitinib -0.141

STIM2 isoform 2 (UniProt Q9P246)
inactive: [8] 0.038 | [1] 0.088 | volasertib -0.115 | [2] 0.017 | [3] 0.294 | [4] -0.132 | saracatinib 0.079 | sotrastaurin 0.096 | alvocidib 0.005 | Tubastatin A -0.051 | [5] -0.039 | [6] -0.027 | encorafenib 0 | [7] -0.001 | alisertib -0.108 | [9] -0.137 | gefitinib 0.19

SUSD1 isoform 2 (UniProt Q6UWL2)
inactive: [1] -0.125 | [2] -0.219 | [3] -0.021 | [4] 0.073 | saracatinib 0 | sotrastaurin 0.004 | alvocidib -0.12 | Tubastatin A 0.01 | [5] -0.087 | [6] 0.1 | encorafenib 0.09 | [7] -0.145

SVBP (UniProt Q8N300)
inactive: [1] -0.017 | [2] 0.002 | [3] 0.12 | [4] -0.01 | sotrastaurin -0.029 | alvocidib -0.066 | Tubastatin A 0.043 | [5] -0.011 | encorafenib 0.142 | [7] -0.131 | alisertib 0.001 | gefitinib -0.074

STRN3 isoform 2 (UniProt Q13033)
inactive: barasertib -0.08 | [3] -0.042 | [4] 0.065 | saracatinib -0.066 | alvocidib 0.075 | [6] 0.015

TAF3 (UniProt Q5VWG9)
inactive: [8] 0.164 | volasertib -0.161 | [2] 0.118 | [3] -0.42 | [4] -0.018 | alvocidib 0.111 | Tubastatin A -0.129 | alisertib -0.045 | [9] 0.002 | gefitinib 0.238

TAB3 (UniProt Q8N5C8)
inactive: [8] 0.12 | barasertib 0.004 | [1] 0.018 | volasertib -0.257 | [2] 0.036 | [3] 0.131 | [4] -0.021 | saracatinib 0.006 | sotrastaurin 0.034 | alvocidib 0.084 | Tubastatin A -0.028 | [5] 0.047 | [6] -0.011 | encorafenib 0.088 | [7] 0.018 | alisertib -0.027 | [9] -0.238 | gefitinib -0.035

STXBP6 (UniProt Q8NFX7)
inactive: barasertib 0.059 | [2] 0.143 | [3] -0.125 | [4] -0.088 | sotrastaurin -0.001 | alvocidib -0.07 | Tubastatin A -0.281 | [5] -0.358 | alisertib 0.119 | gefitinib -0.04

SUSD3 (UniProt Q96L08)
inactive: [8] -0.071 | volasertib 0.104 | [2] 0.004 | [3] 0.028 | [4] 0.011 | alvocidib -0.066 | Tubastatin A 0.16 | [5] -0.17 | [9] -0.111

STK10 (UniProt O94804)
inactive: barasertib 0.111 | [2] -0.335 | saracatinib 0.24 | sotrastaurin -0.069 | Tubastatin A 0.213 | [5] -0.06 | [6] -0.207

STS (UniProt P08842)
inactive: vemurafenib -0.127 | barasertib -0.442 | [2] 0.095 | [3] -0.055 | [4] 0.049 | sotrastaurin -0.028 | alvocidib 0.012 | Tubastatin A -0.169 | defactinib -0.003 | alisertib 0.302 | gefitinib 0.169

STYX (UniProt Q8WUJ0)
inactive: [8] 0.082 | barasertib 0.121 | [1] 0.069 | volasertib -0.015 | [2] 0.003 | [3] 0.078 | [4] -0.077 | saracatinib 0.029 | sotrastaurin -0.1 | alvocidib 0.017 | Tubastatin A -0.005 | [5] 0.08 | [6] 0.004 | encorafenib -0.043 | [7] -0.051 | alisertib -0.048 | [9] 0.051 | gefitinib -0.02

SWSAP1 (UniProt Q6NVH7)
inactive: [2] 0.135 | saracatinib -0.149 | Tubastatin A -0.163 | [5] 0.066 | [6] -0.005 | alisertib -0.191 | gefitinib 0.044

STON1 isoform 2 (UniProt Q9Y6Q2)
inactive: [8] -0.002 | volasertib -0.046 | [2] -0.014 | Tubastatin A 0.034 | [5] -0.011 | alisertib -0.017 | [9] 0.096 | gefitinib -0.163

SYNGR2 (UniProt K7EJ35)
inactive: alisertib -0.163 | gefitinib -0.074

TADA2A (UniProt O75478)
inactive: [2] 0.031 | sotrastaurin -0.245 | Tubastatin A -0.14 | [5] -0.099 | alisertib 0.02 | gefitinib -0.05

SUCO isoform 2 (UniProt Q9UBS9)
inactive: vemurafenib 0.059 | [1] -0.18 | [2] 0.089 | sotrastaurin 0.174 | Tubastatin A -0.086 | defactinib -0.035 | encorafenib 0.044 | [7] -0.065

SYTL2 isoform 8 (UniProt Q9HCH5)
inactive: [8] 0.192 | barasertib 0.023 | volasertib 0.078 | saracatinib 0.047 | [6] 0.539 | [9] 0.257

SYNGR3 (UniProt O43761)
inactive: barasertib -0.086

TADA2B (UniProt Q86TJ2)
inactive: vemurafenib 0.02 | saracatinib 0.086 | sotrastaurin 0.169 | [5] 0.063 | defactinib -0.135 | [6] 0.017 | alisertib 0.003 | gefitinib 0.135

SUPT3H (UniProt O75486)
inactive: [8] -0.015 | [1] 0.088 | volasertib 0.065 | [2] -0.008 | [3] 0.138 | [4] -0.149 | sotrastaurin 0.023 | alvocidib -0.088 | Tubastatin A -0.059 | [5] 0.064 | encorafenib -0.303 | [7] 0.254 | [9] 0.008

TAF1A (UniProt Q15573)
inactive: vemurafenib 0.004 | defactinib 0.263 | alisertib 0.15 | gefitinib 0.114

SYNGR1 isoform 2 (UniProt O43759)
inactive: barasertib 0.065 | [1] -0.233 | [2] -0.038 | [3] 0.031 | [4] 0.014 | sotrastaurin -0.018 | alvocidib 0.04 | Tubastatin A 0.217 | [5] -0.12 | encorafenib -0.127 | [7] 0.168

SYNM (UniProt O15061)
inactive: barasertib 0.063 | [1] 0.101 | [3] -0.06 | [4] 0.038 | alvocidib -0.042 | encorafenib 0.09 | [7] 0.015

SUN1 isoform 9 (UniProt O94901)
inactive: [2] 0.063 | Tubastatin A 0.067

STK19 (UniProt P49842)
inactive: saracatinib 0.08 | sotrastaurin -0.035 | [6] -0.058 | alisertib 0.048 | gefitinib -0.174

STIMATE (UniProt Q86TL2)
inactive: [2] -0.069 | Tubastatin A 0

Quoted from above (10 entries):
SUCO isoform 2 (UniProt Q9UBS9)
inactive: vemurafenib 0.059 | [1] -0.18 | [2] 0.089 | sotrastaurin 0.174 | Tubastatin A -0.086 | defactinib -0.035 | encorafenib 0.044 | [7] -0.065

SYTL2 isoform 8 (UniProt Q9HCH5)
inactive: [8] 0.192 | barasertib 0.023 | volasertib 0.078 | saracatinib 0.047 | [6] 0.539 | [9] 0.257

SYNGR3 (UniProt O43761)
inactive: barasertib -0.086

TADA2B (UniProt Q86TJ2)
inactive: vemurafenib 0.02 | saracatinib 0.086 | sotrastaurin 0.169 | [5] 0.063 | defactinib -0.135 | [6] 0.017 | alisertib 0.003 | gefitinib 0.135

SUPT3H (UniProt O75486)
inactive: [8] -0.015 | [1] 0.088 | volasertib 0.065 | [2] -0.008 | [3] 0.138 | [4] -0.149 | sotrastaurin 0.023 | alvocidib -0.088 | Tubastatin A -0.059 | [5] 0.064 | encorafenib -0.303 | [7] 0.254 | [9] 0.008

TAF1A (UniProt Q15573)
inactive: vemurafenib 0.004 | defactinib 0.263 | alisertib 0.15 | gefitinib 0.114

SYNGR1 isoform 2 (UniProt O43759)
inactive: barasertib 0.065 | [1] -0.233 | [2] -0.038 | [3] 0.031 | [4] 0.014 | sotrastaurin -0.018 | alvocidib 0.04 | Tubastatin A 0.217 | [5] -0.12 | encorafenib -0.127 | [7] 0.168

SYNM (UniProt O15061)
inactive: barasertib 0.063 | [1] 0.101 | [3] -0.06 | [4] 0.038 | alvocidib -0.042 | encorafenib 0.09 | [7] 0.015

SUN1 isoform 9 (UniProt O94901)
inactive: [2] 0.063 | Tubastatin A 0.067

STK19 (UniProt P49842)
inactive: saracatinib 0.08 | sotrastaurin -0.035 | [6] -0.058 | alisertib 0.048 | gefitinib -0.174

Carrying on.

STK35 (UniProt Q8TDR2)
inactive: [8] -0.01 | barasertib 0.021 | [1] 0.005 | volasertib -0.106 | [3] -0.269 | [4] 0.165 | saracatinib 0.015 | [6] 0.057 | encorafenib 0.023 | [7] -0.017 | [9] 0.021

STK38L (UniProt Q9Y2H1)
active: [5] 0.647
inactive: [1] -0.105 | [2] -0.047 | saracatinib -0.058 | sotrastaurin -0.01 | Tubastatin A -0.063 | [6] 0.06 | encorafenib -0.036 | [7] 0.193 | alisertib 0.06 | gefitinib -0.049
